Assay results published in paper PMC13546301.
These are yes or no findings as the source states them, for the method shown. Binding seen in cells or lysates may run through a third protein. Here binding means that the protein was enriched with, or labelled near, the bait; the list need not be complete.

Sequences of proteins named here, by UniProt entry; tags and fusion partners are left off. A change or cut given only in a name is not applied to a line headed by its entry. Residues count along the entry.
UniProt P61215: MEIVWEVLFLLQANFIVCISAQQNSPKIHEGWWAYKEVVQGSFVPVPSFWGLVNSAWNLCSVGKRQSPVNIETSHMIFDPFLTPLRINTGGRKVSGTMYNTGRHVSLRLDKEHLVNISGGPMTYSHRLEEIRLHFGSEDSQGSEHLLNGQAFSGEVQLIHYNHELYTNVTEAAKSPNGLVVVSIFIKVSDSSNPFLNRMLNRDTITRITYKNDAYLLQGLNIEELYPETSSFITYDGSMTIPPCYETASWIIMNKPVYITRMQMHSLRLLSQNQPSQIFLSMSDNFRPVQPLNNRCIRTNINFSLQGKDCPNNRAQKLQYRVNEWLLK
UniProt B0V2N1, residues 30-1907: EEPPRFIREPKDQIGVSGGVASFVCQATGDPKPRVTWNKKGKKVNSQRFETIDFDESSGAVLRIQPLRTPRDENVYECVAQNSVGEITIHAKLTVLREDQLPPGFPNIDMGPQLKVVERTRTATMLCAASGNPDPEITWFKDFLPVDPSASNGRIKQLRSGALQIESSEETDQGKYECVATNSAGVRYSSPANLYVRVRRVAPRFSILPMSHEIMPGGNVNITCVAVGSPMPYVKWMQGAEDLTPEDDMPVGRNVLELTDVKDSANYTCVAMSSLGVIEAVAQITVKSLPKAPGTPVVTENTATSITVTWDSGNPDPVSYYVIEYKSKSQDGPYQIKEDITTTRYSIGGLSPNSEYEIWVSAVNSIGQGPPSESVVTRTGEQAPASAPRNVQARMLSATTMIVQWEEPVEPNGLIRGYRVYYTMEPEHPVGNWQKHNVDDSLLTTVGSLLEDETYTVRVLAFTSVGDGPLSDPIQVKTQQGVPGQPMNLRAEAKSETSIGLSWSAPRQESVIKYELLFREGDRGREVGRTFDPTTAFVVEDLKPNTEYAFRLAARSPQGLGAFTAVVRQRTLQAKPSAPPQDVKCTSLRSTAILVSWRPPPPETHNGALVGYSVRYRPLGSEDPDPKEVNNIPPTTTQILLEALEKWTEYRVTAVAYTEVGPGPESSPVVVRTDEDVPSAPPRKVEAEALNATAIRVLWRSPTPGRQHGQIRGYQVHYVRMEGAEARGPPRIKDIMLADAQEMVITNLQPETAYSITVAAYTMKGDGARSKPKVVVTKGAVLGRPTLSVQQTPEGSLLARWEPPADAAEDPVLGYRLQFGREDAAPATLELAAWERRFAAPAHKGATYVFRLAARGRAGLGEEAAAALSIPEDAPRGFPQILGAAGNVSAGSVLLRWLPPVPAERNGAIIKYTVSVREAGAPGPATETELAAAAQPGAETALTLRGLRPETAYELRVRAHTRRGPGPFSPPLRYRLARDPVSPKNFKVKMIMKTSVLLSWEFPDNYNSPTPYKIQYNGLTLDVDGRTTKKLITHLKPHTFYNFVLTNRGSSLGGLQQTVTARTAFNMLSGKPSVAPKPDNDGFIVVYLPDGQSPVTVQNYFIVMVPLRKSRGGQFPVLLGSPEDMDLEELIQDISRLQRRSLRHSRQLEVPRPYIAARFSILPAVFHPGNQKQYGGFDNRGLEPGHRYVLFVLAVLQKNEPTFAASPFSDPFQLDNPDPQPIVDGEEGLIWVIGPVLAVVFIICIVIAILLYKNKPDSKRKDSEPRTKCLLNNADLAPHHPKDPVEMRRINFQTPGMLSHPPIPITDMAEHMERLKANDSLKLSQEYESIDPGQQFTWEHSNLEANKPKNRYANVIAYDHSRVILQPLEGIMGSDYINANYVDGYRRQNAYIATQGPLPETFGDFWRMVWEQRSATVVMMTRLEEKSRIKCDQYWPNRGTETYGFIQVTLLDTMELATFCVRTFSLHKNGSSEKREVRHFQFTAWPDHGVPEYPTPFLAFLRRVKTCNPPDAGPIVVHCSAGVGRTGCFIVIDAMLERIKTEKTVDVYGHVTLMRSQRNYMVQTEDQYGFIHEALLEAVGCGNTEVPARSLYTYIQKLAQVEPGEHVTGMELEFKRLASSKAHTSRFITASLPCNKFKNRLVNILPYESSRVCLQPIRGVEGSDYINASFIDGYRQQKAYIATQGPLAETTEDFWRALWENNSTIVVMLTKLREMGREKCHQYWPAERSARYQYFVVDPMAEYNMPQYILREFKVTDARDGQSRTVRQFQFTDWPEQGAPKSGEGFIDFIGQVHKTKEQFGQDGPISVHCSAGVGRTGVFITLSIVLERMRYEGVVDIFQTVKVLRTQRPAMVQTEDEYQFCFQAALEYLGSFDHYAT
UniProt D3Z7H4: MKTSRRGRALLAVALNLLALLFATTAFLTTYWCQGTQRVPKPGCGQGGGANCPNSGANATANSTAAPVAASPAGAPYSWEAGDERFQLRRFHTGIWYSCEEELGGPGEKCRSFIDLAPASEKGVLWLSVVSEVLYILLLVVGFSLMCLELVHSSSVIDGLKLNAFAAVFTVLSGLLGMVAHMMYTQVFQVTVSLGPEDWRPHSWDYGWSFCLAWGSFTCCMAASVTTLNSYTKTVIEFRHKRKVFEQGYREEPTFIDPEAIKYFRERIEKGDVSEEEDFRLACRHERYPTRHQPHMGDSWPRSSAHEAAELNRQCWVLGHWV
UniProt O88998, residues 17-485: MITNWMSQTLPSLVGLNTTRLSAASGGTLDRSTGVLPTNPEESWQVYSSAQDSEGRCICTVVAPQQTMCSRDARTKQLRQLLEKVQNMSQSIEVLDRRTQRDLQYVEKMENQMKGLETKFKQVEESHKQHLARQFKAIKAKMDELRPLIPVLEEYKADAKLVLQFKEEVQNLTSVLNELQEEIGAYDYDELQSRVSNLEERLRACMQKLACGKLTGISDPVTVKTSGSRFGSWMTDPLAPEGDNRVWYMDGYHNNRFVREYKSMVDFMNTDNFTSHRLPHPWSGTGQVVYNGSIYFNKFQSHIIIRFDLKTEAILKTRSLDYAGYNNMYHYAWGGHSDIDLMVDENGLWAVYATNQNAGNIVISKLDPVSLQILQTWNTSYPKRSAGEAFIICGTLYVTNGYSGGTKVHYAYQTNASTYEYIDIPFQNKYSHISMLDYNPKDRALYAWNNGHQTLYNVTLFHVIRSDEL
UniProt Q9Z2W9, residues 23-888: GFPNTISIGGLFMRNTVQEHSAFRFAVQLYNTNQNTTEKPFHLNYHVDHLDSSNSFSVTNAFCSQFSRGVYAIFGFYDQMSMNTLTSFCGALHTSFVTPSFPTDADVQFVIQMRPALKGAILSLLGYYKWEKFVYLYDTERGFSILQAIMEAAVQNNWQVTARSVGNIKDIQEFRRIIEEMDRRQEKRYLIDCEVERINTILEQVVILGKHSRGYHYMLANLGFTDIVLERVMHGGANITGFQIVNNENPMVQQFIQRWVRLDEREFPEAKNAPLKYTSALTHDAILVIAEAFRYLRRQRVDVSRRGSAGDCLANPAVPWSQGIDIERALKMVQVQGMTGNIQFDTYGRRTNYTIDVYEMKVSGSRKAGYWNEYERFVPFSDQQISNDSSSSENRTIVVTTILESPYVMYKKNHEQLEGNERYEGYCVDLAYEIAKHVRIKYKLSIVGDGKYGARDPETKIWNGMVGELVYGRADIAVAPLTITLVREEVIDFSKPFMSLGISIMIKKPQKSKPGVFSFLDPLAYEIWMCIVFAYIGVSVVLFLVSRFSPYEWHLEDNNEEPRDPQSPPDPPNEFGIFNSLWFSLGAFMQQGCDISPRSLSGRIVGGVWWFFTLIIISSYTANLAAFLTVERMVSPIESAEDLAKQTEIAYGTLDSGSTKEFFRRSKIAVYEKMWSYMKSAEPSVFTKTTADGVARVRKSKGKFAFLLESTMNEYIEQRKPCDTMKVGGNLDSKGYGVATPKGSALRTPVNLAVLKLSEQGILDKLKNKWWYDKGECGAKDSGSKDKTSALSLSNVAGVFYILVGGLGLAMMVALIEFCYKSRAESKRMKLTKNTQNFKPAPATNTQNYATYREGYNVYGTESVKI
UniProt O55017: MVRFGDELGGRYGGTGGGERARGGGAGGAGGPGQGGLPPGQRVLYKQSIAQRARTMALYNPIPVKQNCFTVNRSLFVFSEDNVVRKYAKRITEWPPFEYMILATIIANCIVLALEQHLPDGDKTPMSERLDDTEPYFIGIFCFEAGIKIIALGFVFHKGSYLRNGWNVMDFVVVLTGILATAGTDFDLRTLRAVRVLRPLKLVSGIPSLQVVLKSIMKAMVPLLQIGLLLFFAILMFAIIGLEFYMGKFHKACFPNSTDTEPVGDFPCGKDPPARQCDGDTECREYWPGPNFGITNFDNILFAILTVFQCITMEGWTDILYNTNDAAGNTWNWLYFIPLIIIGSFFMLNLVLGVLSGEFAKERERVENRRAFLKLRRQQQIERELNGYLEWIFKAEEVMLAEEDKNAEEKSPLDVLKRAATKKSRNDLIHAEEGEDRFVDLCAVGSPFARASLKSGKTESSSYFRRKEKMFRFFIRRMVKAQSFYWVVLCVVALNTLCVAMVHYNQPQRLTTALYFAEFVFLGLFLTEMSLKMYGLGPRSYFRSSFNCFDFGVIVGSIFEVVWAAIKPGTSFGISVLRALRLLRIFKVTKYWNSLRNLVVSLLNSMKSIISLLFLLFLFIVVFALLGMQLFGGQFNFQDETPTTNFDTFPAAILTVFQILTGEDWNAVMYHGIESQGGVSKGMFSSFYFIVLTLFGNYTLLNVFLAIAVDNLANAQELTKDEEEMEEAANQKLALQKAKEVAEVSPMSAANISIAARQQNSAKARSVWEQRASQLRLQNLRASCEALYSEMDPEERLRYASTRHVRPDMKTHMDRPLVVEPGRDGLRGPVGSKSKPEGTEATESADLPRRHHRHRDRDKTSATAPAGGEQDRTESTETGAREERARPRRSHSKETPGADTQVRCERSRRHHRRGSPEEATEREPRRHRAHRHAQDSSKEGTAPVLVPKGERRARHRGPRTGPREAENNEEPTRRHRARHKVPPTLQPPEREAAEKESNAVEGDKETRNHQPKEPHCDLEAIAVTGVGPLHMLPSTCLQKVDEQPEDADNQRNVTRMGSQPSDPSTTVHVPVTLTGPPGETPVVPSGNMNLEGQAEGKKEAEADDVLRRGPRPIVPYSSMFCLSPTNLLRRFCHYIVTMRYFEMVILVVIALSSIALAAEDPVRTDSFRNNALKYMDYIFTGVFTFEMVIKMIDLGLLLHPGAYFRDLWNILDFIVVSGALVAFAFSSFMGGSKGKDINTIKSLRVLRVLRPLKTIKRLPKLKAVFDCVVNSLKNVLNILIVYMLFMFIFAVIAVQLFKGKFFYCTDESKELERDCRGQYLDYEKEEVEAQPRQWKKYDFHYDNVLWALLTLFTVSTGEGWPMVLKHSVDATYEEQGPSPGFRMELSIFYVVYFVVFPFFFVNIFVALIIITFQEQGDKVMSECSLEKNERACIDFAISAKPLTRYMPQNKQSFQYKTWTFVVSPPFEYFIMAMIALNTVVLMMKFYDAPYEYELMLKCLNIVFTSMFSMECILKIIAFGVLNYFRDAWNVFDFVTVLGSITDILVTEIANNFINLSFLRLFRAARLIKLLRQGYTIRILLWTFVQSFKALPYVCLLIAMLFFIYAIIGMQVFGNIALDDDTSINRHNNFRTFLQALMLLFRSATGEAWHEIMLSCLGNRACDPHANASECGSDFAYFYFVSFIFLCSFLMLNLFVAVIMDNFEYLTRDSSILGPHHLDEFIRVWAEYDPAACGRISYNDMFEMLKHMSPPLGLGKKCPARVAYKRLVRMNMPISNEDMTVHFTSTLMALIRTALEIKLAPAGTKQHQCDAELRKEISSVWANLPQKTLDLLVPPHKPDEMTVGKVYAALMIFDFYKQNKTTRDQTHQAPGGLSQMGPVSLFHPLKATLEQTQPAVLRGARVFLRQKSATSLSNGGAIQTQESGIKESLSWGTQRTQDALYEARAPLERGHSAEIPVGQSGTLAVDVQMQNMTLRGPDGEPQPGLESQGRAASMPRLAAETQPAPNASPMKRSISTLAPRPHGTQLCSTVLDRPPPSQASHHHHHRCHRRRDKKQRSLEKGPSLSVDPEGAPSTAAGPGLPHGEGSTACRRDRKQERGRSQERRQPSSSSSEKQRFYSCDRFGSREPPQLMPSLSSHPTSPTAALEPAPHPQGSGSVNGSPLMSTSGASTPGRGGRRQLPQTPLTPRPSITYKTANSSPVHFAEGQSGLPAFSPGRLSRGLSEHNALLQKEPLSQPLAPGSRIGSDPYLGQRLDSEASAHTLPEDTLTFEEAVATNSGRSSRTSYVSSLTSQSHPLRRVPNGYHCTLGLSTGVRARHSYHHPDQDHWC

What was measured:
[1] = biological target: Carbonic anhydrase-related protein 10 (mouse (endogenous in mouse brain)) (UniProt P61215); experiment: affinity purification with mass spectrometry; reverse meAP-MS with 1-4 antibodies per target against constituents of the NRX interactome (PTPRS, T178B, CAH10, NXPH3, TAFA1, LRRT4, anti-HA for HA-Cbln1/2 and others); solubilised mouse brain membrane fractions; target knock-outs, wild-type brains or IgGs as controls, tnR threshold 0.25
[2] = biological target: Receptor-type tyrosine-protein phosphatase S (mouse (endogenous in mouse brain)) (UniProt B0V2N1); experiment: as above
recombinant LRRT2 = biological target: T1, recombinant LRRT2 (UniProt O43300); experiment: affinity purification with mass spectrometry; 15 µg recombinant LRRT2 pre-coupled to protein A Dynabeads as affinity matrix; solubilised mouse brain membrane fractions; only the target purified
T1 sequence: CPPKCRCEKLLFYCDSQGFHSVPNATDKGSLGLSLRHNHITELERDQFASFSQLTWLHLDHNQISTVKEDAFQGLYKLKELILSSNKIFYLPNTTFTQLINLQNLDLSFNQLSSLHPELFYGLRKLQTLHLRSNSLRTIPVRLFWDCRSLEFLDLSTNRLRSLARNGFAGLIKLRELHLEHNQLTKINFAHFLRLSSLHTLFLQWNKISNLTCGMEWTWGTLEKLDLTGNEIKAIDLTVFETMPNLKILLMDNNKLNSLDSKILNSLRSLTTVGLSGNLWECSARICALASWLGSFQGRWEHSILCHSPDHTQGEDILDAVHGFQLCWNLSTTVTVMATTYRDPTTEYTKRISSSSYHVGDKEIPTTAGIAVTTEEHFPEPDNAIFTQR

[3] = biological target: T2, Leucine-rich repeat transmembrane neuronal protein 4 (mouse (endogenous in mouse brain)) (UniProt Q80XG9); experiment: affinity purification with mass spectrometry; reverse meAP-MS with 1-4 antibodies per target against constituents of the NRX interactome (PTPRS, T178B, CAH10, NXPH3, TAFA1, LRRT4, anti-HA for HA-Cbln1/2 and others); solubilised mouse brain membrane fractions; target knock-outs, wild-type brains or IgGs as controls, tnR threshold 0.25
T2 sequence: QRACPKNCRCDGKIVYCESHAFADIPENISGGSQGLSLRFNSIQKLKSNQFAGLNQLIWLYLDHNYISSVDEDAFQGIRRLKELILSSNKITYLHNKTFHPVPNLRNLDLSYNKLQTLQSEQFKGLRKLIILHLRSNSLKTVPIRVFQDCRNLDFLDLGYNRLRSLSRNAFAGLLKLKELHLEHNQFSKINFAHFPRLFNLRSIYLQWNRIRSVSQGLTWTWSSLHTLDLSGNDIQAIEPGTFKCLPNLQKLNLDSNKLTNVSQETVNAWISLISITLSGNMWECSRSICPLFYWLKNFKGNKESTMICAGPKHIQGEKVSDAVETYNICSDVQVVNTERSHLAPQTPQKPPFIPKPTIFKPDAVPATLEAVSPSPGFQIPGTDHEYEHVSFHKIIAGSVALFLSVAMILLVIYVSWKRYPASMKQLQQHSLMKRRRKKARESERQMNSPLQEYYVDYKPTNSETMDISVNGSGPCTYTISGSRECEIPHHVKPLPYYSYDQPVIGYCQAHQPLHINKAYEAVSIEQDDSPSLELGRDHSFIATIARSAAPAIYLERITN

[4] = biological target: T3, Neurexophilin-3 (mouse (endogenous in mouse brain)) (UniProt Q91VX5); experiment: as above
T3 sequence: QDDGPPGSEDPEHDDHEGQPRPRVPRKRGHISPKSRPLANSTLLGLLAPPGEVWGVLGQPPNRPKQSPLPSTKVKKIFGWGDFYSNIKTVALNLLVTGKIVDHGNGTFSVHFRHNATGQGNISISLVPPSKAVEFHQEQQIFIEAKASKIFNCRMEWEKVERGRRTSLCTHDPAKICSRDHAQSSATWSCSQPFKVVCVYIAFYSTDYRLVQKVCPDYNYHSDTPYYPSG

[5] = biological target: Receptor-type tyrosine-protein phosphatase S (mouse (endogenous in mouse brain)) (UniProt B0V2N1); experiment: affinity purification with mass spectrometry; APs with anti-NRX1-3 and anti-PTPRS antibodies from solubilised ER-enriched membrane fractions of mouse brain

binding [1]	binding [2]	binding [5]	Substance	further results
binds	binds		GSG1l (from UniProt D3Z7H4 1-322)	binding [3]: binds
		binds	Carbonic anhydrase-related protein 10 (from UniProt P61215)	

Continued, substance first:

Substance	binding [1]	binding [2]	binding [5]	further results
NOE1 (from UniProt O88998 17-485)	binds	binds		
Transmembrane protein 178B (mouse (endogenous in mouse brain))				binding (recombinant LRRT2): binds; binding [3]: binds; binding [4]: binds
Glutamate (AMPA-type) receptor 3, GluA3 (from UniProt Q9Z2W9 23-888)	binds	binds		
Cav2.2 (from UniProt O55017 1-2327)			binds	
liprin-α2 (from UniProt Q8BSS9 1-1257)			binds	
